According to paper PMC9174988:
No constants are given. Whether binding was seen depends on the method and setting. In cells and extracts the contact can be indirect. A yes stands for co-enrichment or nearness to the bait. Other partners may have been found. For part of these data: A no says only that the protein was not detected with the bait.

Chains of the proteins cited; added tags and fusions are not shown.
UniProt Q8BVE3: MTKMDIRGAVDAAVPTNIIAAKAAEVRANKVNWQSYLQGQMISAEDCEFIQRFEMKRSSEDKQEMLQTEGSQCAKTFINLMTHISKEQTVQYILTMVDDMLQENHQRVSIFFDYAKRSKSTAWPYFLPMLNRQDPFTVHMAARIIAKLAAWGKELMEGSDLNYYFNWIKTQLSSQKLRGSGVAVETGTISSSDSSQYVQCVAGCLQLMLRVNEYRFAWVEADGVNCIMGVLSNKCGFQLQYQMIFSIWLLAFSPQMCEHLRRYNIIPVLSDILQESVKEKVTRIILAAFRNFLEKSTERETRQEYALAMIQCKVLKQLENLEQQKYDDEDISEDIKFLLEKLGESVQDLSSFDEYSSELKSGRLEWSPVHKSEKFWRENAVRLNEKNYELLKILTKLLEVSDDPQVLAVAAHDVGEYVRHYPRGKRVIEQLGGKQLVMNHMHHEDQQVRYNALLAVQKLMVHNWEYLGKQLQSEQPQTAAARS
UniProt P61264: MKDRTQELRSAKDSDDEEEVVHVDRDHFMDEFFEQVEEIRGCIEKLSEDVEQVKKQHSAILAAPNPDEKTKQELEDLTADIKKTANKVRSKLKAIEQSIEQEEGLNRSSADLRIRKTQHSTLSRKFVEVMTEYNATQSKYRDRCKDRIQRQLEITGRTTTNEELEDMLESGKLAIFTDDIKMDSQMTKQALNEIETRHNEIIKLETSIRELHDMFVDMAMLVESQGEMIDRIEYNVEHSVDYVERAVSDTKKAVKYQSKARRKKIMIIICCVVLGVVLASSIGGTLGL

T1: CLN3-BioID (UniProt Q13286)
T1 sequence: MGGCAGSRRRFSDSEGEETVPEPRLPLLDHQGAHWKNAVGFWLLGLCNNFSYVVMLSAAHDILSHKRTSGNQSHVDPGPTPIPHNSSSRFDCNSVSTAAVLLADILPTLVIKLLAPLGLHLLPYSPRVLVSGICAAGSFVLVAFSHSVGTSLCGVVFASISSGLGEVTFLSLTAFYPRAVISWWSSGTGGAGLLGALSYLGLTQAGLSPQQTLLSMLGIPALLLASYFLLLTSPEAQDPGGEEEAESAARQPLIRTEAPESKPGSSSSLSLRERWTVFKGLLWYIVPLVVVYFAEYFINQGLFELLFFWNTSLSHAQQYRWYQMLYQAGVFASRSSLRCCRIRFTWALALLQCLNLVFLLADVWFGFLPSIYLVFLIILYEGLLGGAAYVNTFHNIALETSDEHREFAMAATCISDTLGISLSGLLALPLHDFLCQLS

T2: CLN6-BioID (UniProt Q9NWW5)
T2 sequence: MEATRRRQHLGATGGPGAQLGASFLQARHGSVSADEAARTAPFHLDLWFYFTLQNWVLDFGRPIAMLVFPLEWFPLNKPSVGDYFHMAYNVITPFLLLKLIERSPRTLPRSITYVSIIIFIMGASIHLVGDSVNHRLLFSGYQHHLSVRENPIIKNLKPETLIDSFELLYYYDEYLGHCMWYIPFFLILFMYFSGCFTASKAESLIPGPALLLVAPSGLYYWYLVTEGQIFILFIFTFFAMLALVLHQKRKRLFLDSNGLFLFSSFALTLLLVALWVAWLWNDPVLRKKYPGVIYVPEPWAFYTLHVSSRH


What was measured:
CLN3-BioID = biological target: T1, CLN3-BioID; test: proximity labelling; proximity-dependent biotin identification (BioID) screens with CLN3, CLN6 and CLN8 as baits in neuroblastoma cells
CLN6-BioID = biological target: T2, CLN6-BioID; test: as above

Molecule	binding (CLN3-BioID)	binding (CLN6-BioID)
mammalian uncoordinated-18 (in neuroblastoma cells)	binds	binds
CLN6-BioID (protein, UniProt Q9NWW5 1-311) MEATRRRQHLGATGGPGAQLGASFLQARHGSVSADEAARTAPFHLDLWFYFTLQNWVLDFGRPIAMLVFPLEWFPLNKPSVGDYFHMAYNVITPFLLLKLIERSPRTLPRSITYVSIIIFIMGASIHLVGDSVNHRLLFSGYQHHLSVRENPIIKNLKPETLIDSFELLYYYDEYLGHCMWYIPFFLILFMYFSGCFTASKAESLIPGPALLLVAPSGLYYWYLVTEGQIFILFIFTFFAMLALVLHQKRKRLFLDSNGLFLFSSFALTLLLVALWVAWLWNDPVLRKKYPGVIYVPEPWAFYTLHVSSRH	no binding	–

Further lines, results first:

binding (CLN3-BioID)	binding (CLN6-BioID)	Molecule
binds	binds	ATPase H+ Transporting V1 Subunit H (in neuroblastoma cells) (from UniProt Q8BVE3 1-483)
binds	binds	STX1B (in neuroblastoma cells) (from UniProt P61264 1-288)
binds	binds	Synaptobrevin homolog YKT6 (in neuroblastoma cells) (protein, UniProt Q9CQW1 1-198) MKLYSLSVLYKGDPKAVLLKAAYDVSSFSFFQRSSVQEFMTFTSQLIVERSGKGSRASVKEQEYLCHVYVRSDSLAGVVIADSEYPSRVAFTLLEKVLDEFSKQVDRIDWPVGSPATIQYTGLDDHLSKYQNPREADPMSKVQAELDETKIILHNTMESLLERGEKLDDLVSKSEVLGTQSKAFYKTARKQNSCCAIM
